Article PMC7718874, “Coupling of H3K27me3 recognition with transcriptional repression through the BAH-PHD-CPL2 complex in Arabidopsis” (Nature Communications, 2020)

Target: T1, CPL2, full-length, yeast two-hybrid fusion (Arabidopsis) (UniProt Q5YDB5)
T1 sequence: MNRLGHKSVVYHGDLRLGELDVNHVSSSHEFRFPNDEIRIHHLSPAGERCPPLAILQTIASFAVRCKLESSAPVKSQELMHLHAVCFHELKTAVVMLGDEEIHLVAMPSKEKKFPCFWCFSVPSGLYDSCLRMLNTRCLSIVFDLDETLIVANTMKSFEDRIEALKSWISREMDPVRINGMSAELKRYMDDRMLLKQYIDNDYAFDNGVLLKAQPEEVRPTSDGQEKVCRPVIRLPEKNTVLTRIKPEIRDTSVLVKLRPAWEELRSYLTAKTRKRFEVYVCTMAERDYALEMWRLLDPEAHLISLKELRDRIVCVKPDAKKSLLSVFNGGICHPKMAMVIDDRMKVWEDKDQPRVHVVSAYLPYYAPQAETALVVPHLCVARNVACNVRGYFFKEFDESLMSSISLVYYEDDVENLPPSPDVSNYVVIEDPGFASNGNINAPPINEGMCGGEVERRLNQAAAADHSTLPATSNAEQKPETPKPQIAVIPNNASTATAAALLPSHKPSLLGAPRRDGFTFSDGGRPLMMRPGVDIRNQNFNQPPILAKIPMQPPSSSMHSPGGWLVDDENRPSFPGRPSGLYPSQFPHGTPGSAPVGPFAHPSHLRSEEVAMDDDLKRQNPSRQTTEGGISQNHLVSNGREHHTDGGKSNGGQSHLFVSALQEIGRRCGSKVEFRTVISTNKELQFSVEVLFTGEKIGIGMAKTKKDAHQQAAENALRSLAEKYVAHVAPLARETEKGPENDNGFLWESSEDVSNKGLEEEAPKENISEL
Experiment: two-hybrid; yeast two-hybrid, AD (pGADT7) and BD (pGBKT7) constructs, growth on SD -LW or -LWH plates, 30 °C, 3 d

Row | Substance | binding
1 | AIPP2 C-terminus part, yeast two-hybrid fusion (Arabidopsis) (domain or fragment) | binds
2 | PAIPP2 C-terminus part, yeast two-hybrid fusion (Arabidopsis) (domain or fragment) | binds

No constants are given. Whether binding was seen depends on the method and setting. Binding can be weak; no strength is given. Where a sequence is shown, tags or fusion partners need not be part of it.
